{"source": "patent US20110028695A1", "about": "(published 2011)", "binders": {"B1": {"name": "2A3 (VHH)", "VHH": "EVQLVESGGGLVQAGGSLNLSCVASGIPFSTRTMAWYRQAPGKPRDWVATIRNGAPVYADSVKGRFTVSRDNAKNTLYLQMNSLKPEDTATYLCRDVNGDIWGQGTQVTVSS"}}, "molecular_target": "HER2 on SKBR3 cells (human, UniProt P04626 23-1255)", "test": "flow cytometry on SKBR3 cells, periplasmic extract, anti-myc detection", "note": "These are yes or no findings as the source states them, for the method shown. Some results given as binding are weak or reduced against the parent protein; the word gives no strength.", "data": [{"binder": "B1", "values": [{"measurement": "binding", "value": "binds"}]}]}
